According to article PMC10457402:
No constants are given. Whether binding was seen depends on the method and setting. In cells and extracts the contact can be indirect. Here binding means that the protein was enriched with, or labelled near, the bait; the list need not be complete.

By UniProt entry, the sequences of proteins in these tests, tags left out.
UniProt Q9BUL5: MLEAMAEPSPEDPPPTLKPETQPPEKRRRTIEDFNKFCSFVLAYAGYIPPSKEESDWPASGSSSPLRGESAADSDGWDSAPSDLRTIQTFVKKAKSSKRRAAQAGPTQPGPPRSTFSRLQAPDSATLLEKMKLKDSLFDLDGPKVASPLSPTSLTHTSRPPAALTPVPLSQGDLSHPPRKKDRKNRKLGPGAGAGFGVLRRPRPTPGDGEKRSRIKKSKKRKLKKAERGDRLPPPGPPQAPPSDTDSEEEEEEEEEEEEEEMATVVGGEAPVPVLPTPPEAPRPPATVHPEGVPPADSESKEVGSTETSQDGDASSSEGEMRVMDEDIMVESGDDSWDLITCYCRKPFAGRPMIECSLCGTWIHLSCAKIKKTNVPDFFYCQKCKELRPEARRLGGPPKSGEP
UniProt O43707: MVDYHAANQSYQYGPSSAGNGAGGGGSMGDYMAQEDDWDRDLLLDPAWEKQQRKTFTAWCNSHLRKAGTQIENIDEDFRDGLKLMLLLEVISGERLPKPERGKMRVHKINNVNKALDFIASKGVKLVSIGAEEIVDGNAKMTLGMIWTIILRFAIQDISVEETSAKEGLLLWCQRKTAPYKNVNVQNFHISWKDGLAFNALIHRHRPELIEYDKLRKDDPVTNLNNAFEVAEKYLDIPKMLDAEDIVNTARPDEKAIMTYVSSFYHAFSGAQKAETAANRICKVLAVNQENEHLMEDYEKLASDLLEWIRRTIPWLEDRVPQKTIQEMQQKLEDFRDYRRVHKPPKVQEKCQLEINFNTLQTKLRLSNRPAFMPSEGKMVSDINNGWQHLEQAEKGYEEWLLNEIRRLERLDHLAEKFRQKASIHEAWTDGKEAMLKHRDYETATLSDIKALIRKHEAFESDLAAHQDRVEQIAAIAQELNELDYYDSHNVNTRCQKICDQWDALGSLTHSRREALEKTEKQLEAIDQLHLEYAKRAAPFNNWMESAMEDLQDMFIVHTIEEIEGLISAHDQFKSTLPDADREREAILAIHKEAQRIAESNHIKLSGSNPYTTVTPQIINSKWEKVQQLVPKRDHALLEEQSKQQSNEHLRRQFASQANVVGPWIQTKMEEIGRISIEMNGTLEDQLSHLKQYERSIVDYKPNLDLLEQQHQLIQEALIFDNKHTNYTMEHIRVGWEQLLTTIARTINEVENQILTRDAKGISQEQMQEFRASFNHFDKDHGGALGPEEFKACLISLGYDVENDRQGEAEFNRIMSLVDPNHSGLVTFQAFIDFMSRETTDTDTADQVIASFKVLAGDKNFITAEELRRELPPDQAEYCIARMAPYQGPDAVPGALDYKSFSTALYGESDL

Molecular target: Plant homologous structural domain finger protein 23 (PHF23) (human) (UniProt Q9BUL5)
Assay: affinity purification with mass spectrometry; H1299 cells; pulled down by the PHF23 antibody, SDS-PAGE with Coomassie staining, mass spectrometry

## Alpha-actinin-4 (ACTN4) (from UniProt O43707 1-911)
  binding: binds
